Literature values, collected in patent US20260191871A1, “USE OF ANTIVIRAL AGENTS, COMPOSITION OF MATTER, COMBINATION PREPARATIONS/AGENTS TO TREAT CHRONIC DISEASES ASSOCIATED WITH EPSTEIN-BARR VIRUS AND OTHER HUMAN HERPES VIRUSES” (EPIPHANY BIOSCIENCES, priority 2022, published 2026).
At least one structure is not confirmed: it was looked up by name or label, or the drawing left a doubt.

Tested on: latent Epstein-Barr virus (EBV)

CCC(CC)COC(=O)[C@H](C)N[P@](=O)(OC[C@H]1O[C@@](C#N)(c2ccc3c(N)ncnn23)[C@H](O)[C@@H]1O)Oc1ccccc1 [remdesivir]
reactivation of latent Epstein-Barr virus: can reactivate latent Epstein-Barr virus
